PubChem BioAssay AID1508597, Cure First – 2020
This is an unselected part of the about 2,100 reagents, in one setting of the screen. 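Calls flag viability under 80% in either arm, not effects specific to rucaparib; the reference for percent is not stated.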 A reagent listed more than once was tested more than once; the source does not tell the runs apart. No sequences are given here. The record does not give: the 100% reference.

Assay: 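Genes whose silencing sensitises or protects ovarian cancer cells against rucaparib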 (primary screen)
Cells: human ovarian carcinoma lines grown from tumours: OCI-P5x (papillary serous) and OCI-C5x (clear cell)
Reagent: siRNA pool against human genes, 1.25 pmol siRNA per well
Duration: 72 h or 96 h, depending on the cell culture
Conditions: rucaparib 20 µM (about IC30) or vehicle, present until read-out
Rucaparib or vehicle: Rucaparib
Cell line: OCI-C5x (clear cell)
Detection: 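Luminescent ATP-based viability assay read 72 or 96 h after transfection, depending on culture, given as normalised percent viability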
Direction: viability, normalised: higher = more viable cells remaining
Call rule: 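Active when normalised viability falls below 80 percent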
Calls: active = viability under 80%; inactive = viability 80% or more

target gene | technical replicate | viability, normalised (%) | outcome
ENPP1 (GeneID 5167) | 1 | 29.6 | active
ENPP1 (GeneID 5167) | 2 | 39.7 | active
ENPP1 (GeneID 5167) | 3 | 26.9 | active
CAV2 (GeneID 858) | 1 | 40 | active
CAV2 (GeneID 858) | 2 | 31.6 | active
CAV2 (GeneID 858) | 3 | 39.1 | active
CHEK1 (GeneID 1111) | 1 | 48.8 | active
CHEK1 (GeneID 1111) | 1 | 41.9 | active
CHEK1 (GeneID 1111) | 2 | 48.5 | active
CHEK1 (GeneID 1111) | 2 | 48.3 | active
CHEK1 (GeneID 1111) | 3 | 46.5 | active
CHEK1 (GeneID 1111) | 3 | 49.1 | active
ARFRP1 (GeneID 10139) | 1 | 80.4 | inactive
ARFRP1 (GeneID 10139) | 2 | 85.5 | inactive
ARFRP1 (GeneID 10139) | 3 | 85.7 | inactive
F3 (GeneID 2152) | 1 | 56.9 | active
F3 (GeneID 2152) | 2 | 35 | active
F3 (GeneID 2152) | 3 | 42.2 | active
MAP2K1 (GeneID 5604) | 1 | 56 | active
MAP2K1 (GeneID 5604) | 2 | 56.6 | active
MAP2K1 (GeneID 5604) | 3 | 60.1 | active
MSH3 (GeneID 4437) | 1 | 64.9 | active
MSH3 (GeneID 4437) | 2 | 59.8 | active
MSH3 (GeneID 4437) | 3 | 76.4 | active

2 entries already listed, sorted by “viability, normalised (%)”, highest first:
target gene | technical replicate | viability, normalised (%) | outcome
CAV2 (GeneID 858) | 1 | 40 | active
ENPP1 (GeneID 5167) | 3 | 26.9 | active
